Data: PMC9121324
Results are given in words; binding and its absence hold for the method and conditions named. In cells and extracts the contact can be indirect. Some results given as binding are weak or reduced against the parent protein; the word gives no strength. Sequences can lack the tags named with a protein.

The chains behind the UniProt entries cited, without tags or fusion partners. Where a name states a change or a piece, a line headed by the entry shows the natural chain unless it says otherwise.
UniProt P60953: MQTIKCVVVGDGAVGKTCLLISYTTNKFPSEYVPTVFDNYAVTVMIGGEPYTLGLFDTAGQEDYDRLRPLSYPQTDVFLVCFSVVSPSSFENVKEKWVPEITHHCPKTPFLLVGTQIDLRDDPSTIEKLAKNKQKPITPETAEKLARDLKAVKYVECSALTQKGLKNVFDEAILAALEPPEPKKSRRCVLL

Target: T1, Myo1f-GFP (full-length Myosin1f as a GFP fusion) (human) (UniProt O00160)
T1 sequence: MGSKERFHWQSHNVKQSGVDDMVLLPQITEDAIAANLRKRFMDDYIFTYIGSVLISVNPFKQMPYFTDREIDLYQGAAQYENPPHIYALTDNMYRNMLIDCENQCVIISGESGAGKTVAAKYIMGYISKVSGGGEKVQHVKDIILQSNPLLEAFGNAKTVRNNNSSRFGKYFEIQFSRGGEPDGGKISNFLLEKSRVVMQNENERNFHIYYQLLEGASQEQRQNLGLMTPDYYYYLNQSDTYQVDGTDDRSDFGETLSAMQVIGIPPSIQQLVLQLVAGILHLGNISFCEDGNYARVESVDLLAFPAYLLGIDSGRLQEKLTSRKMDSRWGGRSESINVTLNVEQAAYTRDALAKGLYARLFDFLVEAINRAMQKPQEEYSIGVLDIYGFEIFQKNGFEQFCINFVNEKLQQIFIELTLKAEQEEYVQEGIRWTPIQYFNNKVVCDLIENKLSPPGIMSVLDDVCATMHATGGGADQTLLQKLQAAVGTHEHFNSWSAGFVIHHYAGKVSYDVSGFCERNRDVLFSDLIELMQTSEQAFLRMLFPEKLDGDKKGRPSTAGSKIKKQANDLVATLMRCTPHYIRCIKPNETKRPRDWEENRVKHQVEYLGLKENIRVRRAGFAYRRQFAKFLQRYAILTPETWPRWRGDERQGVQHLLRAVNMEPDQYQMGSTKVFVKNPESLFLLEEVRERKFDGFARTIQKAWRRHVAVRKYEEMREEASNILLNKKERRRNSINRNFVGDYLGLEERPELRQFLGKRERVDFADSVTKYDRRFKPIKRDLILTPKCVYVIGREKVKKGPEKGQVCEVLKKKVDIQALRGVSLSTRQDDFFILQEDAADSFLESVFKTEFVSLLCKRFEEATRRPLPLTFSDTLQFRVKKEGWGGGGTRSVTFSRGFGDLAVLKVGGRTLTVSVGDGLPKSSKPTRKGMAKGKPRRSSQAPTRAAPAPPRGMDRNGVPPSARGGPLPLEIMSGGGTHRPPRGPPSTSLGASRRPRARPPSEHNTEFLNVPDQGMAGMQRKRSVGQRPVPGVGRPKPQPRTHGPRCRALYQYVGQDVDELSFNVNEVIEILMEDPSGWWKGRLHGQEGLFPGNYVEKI
Assay: co-IP; co-immunoprecipitation of Myo1f and Cdc42-Q61L (Figure S3B, legend not shown); the methods describe anti-GFP Micro-Beads on lysates of transfected 293T cells

mCherry-Cdc42-Q61L (constitutively active mutant of Cdc42) (from UniProt P60953 1-191)
binding: binds
